Assay results from paper doi:10.1101/2024.02.14.580338.
Positions count from the first letter of the chain named. In names and notes the source's numbering stands. Results are given in words; binding and its absence hold for the method and conditions named. In cells and extracts the contact can be indirect. Some entries that bind do so weakly or less than the wild type. Each block holds one binder with its values, some of them ahead of it.

Protein sequences, listed by entry. Tags and fused reporters are not part of them.
UniProt P70168: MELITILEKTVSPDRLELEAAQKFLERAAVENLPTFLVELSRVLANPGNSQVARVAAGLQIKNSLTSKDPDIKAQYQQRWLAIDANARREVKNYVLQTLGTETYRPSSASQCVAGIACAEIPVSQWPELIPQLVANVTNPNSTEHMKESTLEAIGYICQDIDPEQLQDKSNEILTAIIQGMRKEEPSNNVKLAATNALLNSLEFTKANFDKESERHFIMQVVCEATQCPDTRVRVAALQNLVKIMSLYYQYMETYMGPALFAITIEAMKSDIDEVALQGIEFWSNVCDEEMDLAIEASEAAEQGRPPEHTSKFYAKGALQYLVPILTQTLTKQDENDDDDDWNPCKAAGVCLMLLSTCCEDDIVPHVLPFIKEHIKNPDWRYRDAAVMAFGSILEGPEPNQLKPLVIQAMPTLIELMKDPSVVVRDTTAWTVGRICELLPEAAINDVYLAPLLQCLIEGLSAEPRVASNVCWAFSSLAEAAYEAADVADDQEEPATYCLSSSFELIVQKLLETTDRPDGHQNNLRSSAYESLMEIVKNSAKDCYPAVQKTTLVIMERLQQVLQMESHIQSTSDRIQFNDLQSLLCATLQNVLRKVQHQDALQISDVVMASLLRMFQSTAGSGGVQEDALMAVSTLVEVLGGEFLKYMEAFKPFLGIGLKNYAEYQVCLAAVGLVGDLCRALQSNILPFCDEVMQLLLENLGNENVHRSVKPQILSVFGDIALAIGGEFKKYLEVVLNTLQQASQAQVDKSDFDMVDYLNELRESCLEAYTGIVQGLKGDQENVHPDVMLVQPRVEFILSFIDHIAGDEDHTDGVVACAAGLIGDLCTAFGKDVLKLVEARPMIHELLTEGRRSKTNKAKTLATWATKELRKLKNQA

Target: Importin-β (mouse (endogenous in MEFs)) (UniProt P70168)
Assay: proximity ligation

binding: binds
B1: NEMF R86S (protein, UniProt Q8CCP0 1-1064)
chain: MKSRFSTVDLRAVLAELNASLLGMRVNNVYDVDNKTYLIRLQKPDFKATLLLESGIRIHTTEFEWPKNMMPSSFAMKCRKHLKSRSLVSAKQLGVDRIVDFQFGSDEAAYHLIIELYDRGNIVLTDYEYLILNILRFRTDEADDVKFAVRERYPIDHARAAEPLLTLERLTEVIAAAPKGEVLKRVLNPLLPYGPALIEHCLIESGFSGNAKVDEKLESKDIEKILVCVQRAEDYLRKTSNFNGKGYIIQKREAKPSLDADKPAEDILTYEEFHPFLFSQHLQCPYIEFESFDKAVDEFYSKIEGQKIDLKALQQEKQALKKLDNVRKDHENRLEALQQAQEIDKLKGELIEMNLQIVDRAIQVVRSALANQIDWTEIGVIVKEAQAQGDPVACAIKELKLQTNHVTMLLRNPYLLSEEEDGDGDASIENSDAEAPKGKKKKQKNKQLQKPQKNKPLLVDVDLSLSAYANAKKYYDHKRYAAKKTQRTVEAAEKAFKSAEKKTKQTLKEVQTVTSIQKARKVYWFEKFLWFISSENYLIIGGRDQQQNEIIVKRYLTPGDIYVHADLHGATSCVIKNPTGEPIPPRTLTEAGTMALCYSAAWDARVITSAWWVYHHQVSKTAPTGEYLTTGSFMIRGKKNFLPPSYLMMGFSFLFKVDESCVWRHRGERKVRVQDEDMETLTSCTSELMAEEMEQLEGGDSSEEETEELHGMPGDVELMTQVDQEDIAVHSGRDELSSEDGEAKAVTKDQEPIGEMKEEEEDTFEYPDTTIDLSHLQSQRPLQKLAPREESLNSNDSKSQGRRHLSAKERREMKKKKLPCESGDLEVIEEKDKERESAVHTEAYQNTSKNVAAGQPMKRGQKSKMKKMKEKYKDQDDEDRELIMKLLASAGSNKEEKGKKGKKGKPKDEPVKKPPQKPRGGQRVLDVVKEPPSLQVLAHDLQDLAVDDPHDDKEEHDLDQQGNEENLFDSLTGQPHPEDVLMFAIPICAPYTIMTNYKYKVKLTPGVQKKGKAAKTALNSFMHSKEATAREKDLFRSVKDTDLSRNIPGKVKVSAPNLLHVKRK

binding: binds
B2: Nuclear Export Mediator Factor (NEMF), wild type (protein, UniProt Q8CCP0 1-1064)
chain: B1 chain with S86R
